Where a name gives a salt, the structure may show the parent alone.
System: Synaptosomal Uptake of Serotonin (5HT), rat corpus striatum
Test: Blockade of synaptosomal uptake of serotonin (5HT) in vitro
Type: biochemical, rat (Sprague-Dawley CD)
Conditions: brain synaptosomes
Experimental: Sprague-Dawley CD male rats weighing 180-220 g. (Charles River Laboratories, Inc.; Wilmington, Mass.) were used in this procedure. A crude synaptosomal fraction of rat corpus striatum (for 5HT and DA uptake) or hypothalmus (for NE uptake) tissue was prepared by homogenizing tissue (25 ml./g. wet) in ice-cold 0.32M sucrose containing 1 mg./ml. glucose, 0.0001M EDTA and tris(hydroxymethyl)aminomethane to pH 7.4. The homogenate was centrifuged at 1000 × g for 10 min. at 0°-4° C., the pellet discarded and the supernatant centrifuged at 17,000 × g for 20 min. at 0°-4° C. The resulting pellet was resuspended in the ice-cold 0.32M sucrose pH 7.4 solution at 10 ml./g. original tissue (wet) for corpus striatum and 5 ml./g. original tissue (wet) for hypothalmus. […] After incubation, the mixtures were filtered through 0.45 micron Millipore filters and the filters washed with the incubation buffer. […] Uptake was calculated as picomoles 5HT, DA or NE per mg. protein (protein was determined by measurement with Folin phenol reagent).

SMILES | IC50 (5HT) / IC50 (NE)
CN[C@H]1CC[C@@H](c2ccc(Cl)cc2)c2ccc(OC)cc21 (relative stereo) [Example 21, Cis-(1S) (1R)-N-methyl-4-(4-chlorophenyl)-7-methoxy-1,2,3,4-tetrahydro-1-naphthalenamine Hydrochloride] | 0.40
CN[C@@H]1CC[C@H](c2cccc(C(F)(F)F)c2)c2ccccc21 (relative stereo) [Example 11, Cis-N-methyl-4-(3-trifluoromethyl-phenyl)-1,2,3,4-tetrahydro-1-naphthalenamine] | 0.10
CN[C@H]1CC[C@@H](c2ccc(Br)cc2)c2ccccc21 (relative stereo) [Example 16, Cis-(1S)(1R)-N-methyl-4-(4-bromophenyl)-1,2,3,4-tetrahydro-1-naphthalenamine Hydrochloride] | 0.14
CN[C@H]1CC[C@@H](c2cccc(OC)c2)c2ccccc21 (relative stereo) [Example 19] | 5.4
CN(C)[C@H]1CC[C@@H](c2cccc(C(F)(F)F)c2)c2ccccc21 (relative stereo) [Example 22, Cis-(1S)(1R)-N,N-dimethyl-4-(3-trifluoromethylphenyl)-1,2,3,4-tetrahydro-1-naphthalenamine Maleate] | 0.21
CN[C@H]1CC[C@@H](c2ccccc2OC)c2ccccc21 (relative stereo) [Example 18] | 1.8
CN[C@H]1CC[C@@H](c2ccccc2)c2ccccc21 (relative stereo) [Comparative Example, Cis(1S) (1R)N--methyl-4-phenyl-1,2,3,4-tetrahydro-1-naphthalenamin hydrochloride, reference compound] | 1.8
CN[C@H]1CC[C@@H](c2ccc(Cl)cc2)c2ccc(Cl)cc21 (relative stereo) [Example 15, Cis-(1S)(1R)-N-methyl-4-(4-chlorophenyl)-7-chloro-1,2,3,4-tetrahydro-1-naphthalenamine Hydrochloride] | 0.14

Reference: US4536518A, “Antidepressant derivatives of cis-4-phenyl-1,2,3,4-tetrahydro-1-naphthalenamine” (priority 1979, dated 1985)
